Source: PubChem BioAssay AID720505 (Drosophila RNAi Screening Center, 2013)
The deposit covers about 20,000 reagents; below is an unselected part of those with a known target gene and a result. In the full data, about 2,100 (10%) were called active. 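Raw plate signals without normalisation; calls rest on control-based scores that were not deposited; replicate 2 separates called from uncalled poorly.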 A plus sign joins genes that one reagent is predicted to hit. Not given: the amount of reagent, the time to read-out.

Purpose: 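Knock-downs that reduce calcium influx once internal stores are emptied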 (primary screen)
System: Drosophila S2R+ cells
Reagents: long dsRNA against Drosophila genes
Challenge: thapsigargin (2 µM) in calcium-free buffer to empty internal stores, then 2 mM calcium added back
Detection: 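Stores emptied by 2 µM thapsigargin without calcium, then 2 mM calcium re-added; fluo-4 fluorescence followed by FLIPR in 384-well plates, per-well averaged endpoint, raw; two screen passes, some wells retested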
Scale: calcium signal and retest calcium signal: higher = more calcium entry after store depletion
Rule for the call: 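Knock-downs counted as hits when calcium entry dropped relative to STIM1 positive and Rho1 negative controls present on each plate; roughly 1500 genes called, with reductions of differing size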
Meaning of the calls: active = called as lowering calcium entry; inactive = not called

gene | amplicon | calcium signal, replicate 1 | calcium signal, replicate 2 | retest calcium signal, replicate 1 | retest calcium signal, replicate 2 | outcome
CG10154 | DRSC09707 | 104 | 115 | – | – | inactive
CheB53a | DRSC06625 | 156 | 138 | – | – | inactive
CG32551 | DRSC19259 | 96.8 | 104 | – | – | inactive
morgue | DRSC00264 | 146 | 220 | – | – | inactive
lin | DRSC07644 | 84.2 | 112 | – | – | inactive
nAChRalpha3 | DRSC18800 | 255 | 111 | – | – | inactive
CG14339 | DRSC00369 | 302 | 170 | – | – | inactive
CG4066 | DRSC15541 | 123 | 89.3 | – | – | inactive
CG17660 | DRSC00513 | 113 | 305 | – | – | inactive
CG1999 | DRSC18199 | 141 | 146 | – | – | inactive
Ser8 | DRSC06891 | 151 | 193 | – | – | inactive
spag | DRSC04717 | 104 | 139 | – | – | inactive
CG17261 | DRSC00498 | 111 | 126 | – | – | inactive
EndoU | DRSC15472 | 113 | 168 | – | – | inactive
Gnf1 | DRSC12351 | 77.2 | 72.3 | – | – | active
CG6901 | DRSC16129 | 106 | 153 | – | – | inactive
Prx6a | DRSC00565 | 98.5 | 248 | – | – | inactive
Stam | DRSC03444 | 71 | 110 | – | – | inactive
Ror | DRSC03414 | 110 | 146 | – | – | inactive
squ | DRSC01549 | 73 | 154 | – | – | inactive
dnd | DRSC16064 | 140 | 191 | – | – | inactive
CG33642 | DRSC01325 | 174 | 88.8 | – | – | inactive
Cda9 | DRSC06593 | 138 | 130 | – | – | inactive
CG7294 | DRSC03041 | 111 | 94.4 | – | – | inactive
Srg2 | DRSC10681 | 91.3 | 98.4 | – | – | inactive
CG14515 | DRSC14867 | 113 | 97.5 | – | – | inactive
Spag1 | DRSC15331 | 187 | 132 | – | – | inactive
Vps15 | DRSC16553 | 146 | 123 | – | – | inactive
cmb | DRSC09790 | 90.6 | 103 | – | – | inactive
Toll-6 | DRSC11304 | 77.6 | 153 | – | – | inactive
Spn42Dd | DRSC05024 | 56 | 78.9 | – | – | active
Spn42Dd | DRSC22060 | 95.6 | 212 | – | – | inactive
CG9062 | DRSC07327 | 107 | 126 | – | – | inactive
Spn43Ad | DRSC06770 | 142 | 182 | – | – | inactive
CG3473 | DRSC01915 | 119 | 112 | – | – | inactive
CG34425 | DRSC12210 | 105 | 155 | – | – | inactive
CG34425 | DRSC22315 | 68.2 | 218 | – | – | inactive
S | DRSC00785 | 142 | 120 | – | – | inactive
Rrp4 | DRSC04434 | 71 | 186 | – | – | active
CG3630 | DRSC18499 | 120 | 120 | – | – | inactive
CG6763 | DRSC16110 | 193 | 98 | – | – | inactive
CG31183 | DRSC14403 | 180 | 237 | – | – | inactive
CG31183 | DRSC15554 | 95.7 | 175 | – | – | inactive
CG30056 | DRSC21752 | 172 | 111 | – | – | inactive
CG14160 | DRSC10161 | 96.3 | 109 | – | – | inactive
CG15922 | DRSC15128 | 126 | 197 | – | – | inactive
sta | DRSC18838 | 49.8 | 98.8 | – | – | active
CG17470 | DRSC02621 | 115 | 80.6 | – | – | inactive
Osi6 | DRSC12128 | 103 | 118 | – | – | inactive
Pof | DRSC04405 | 72.2 | 196 | – | – | active
DIP-gamma | DRSC14873 | 72.1 | 85.3 | – | – | inactive
Gasz | DRSC06829 | 181 | 95.9 | – | – | inactive

Reagents listed above called active (5):
gene | amplicon | calcium signal, replicate 1 | calcium signal, replicate 2 | retest calcium signal, replicate 1 | retest calcium signal, replicate 2 | outcome
Gnf1 | DRSC12351 | 77.2 | 72.3 | – | – | active
Spn42Dd | DRSC05024 | 56 | 78.9 | – | – | active
Rrp4 | DRSC04434 | 71 | 186 | – | – | active
sta | DRSC18838 | 49.8 | 98.8 | – | – | active
Pof | DRSC04405 | 72.2 | 196 | – | – | active

Further reagents:
gene | amplicon | calcium signal, replicate 1 | calcium signal, replicate 2 | retest calcium signal, replicate 1 | retest calcium signal, replicate 2 | outcome
Nipped-A | DRSC04882 | 136 | 97.2 | 86.8 | 116 | inactive
Nipped-A | DRSC04883 | 99.8 | 126 | – | – | inactive
Nipped-A | DRSC04884 | 163 | 170 | – | – | inactive
Nipped-A | DRSC07738 | 112 | 144 | – | – | inactive
Nipped-A | DRSC22386 | 81.3 | 243 | – | – | inactive
CG14017 | DRSC02348 | 88.5 | 94.3 | – | – | inactive
CG11529 | DRSC09839 | 79.8 | 87.3 | – | – | inactive
RpL37-1 | DRSC20149 | 70.4 | 123 | 7608 | 205 | active
RpL37-1 | DRSC21646 | 66.3 | 124 | – | – | inactive
Polr3B | DRSC07536 | 162 | 99.4 | – | – | inactive
Mob2 | DRSC09856 | 120 | 158 | – | – | inactive
Mob2 | DRSC23274 | 92.3 | 92.7 | – | – | inactive
elB | DRSC03527 | 113 | 110 | – | – | inactive
tzn | DRSC11755 | 93.3 | 80.7 | – | – | inactive
Su(var)2-10 | DRSC07721 | 189 | 147 | – | – | inactive
Rm62 | DRSC12365 | 146 | 160 | – | – | inactive
CG43292 | DRSC08883 | 9109 | 152 | – | – | inactive
CG43292 | DRSC21542 | 181 | 99.2 | – | – | inactive
ihog | DRSC03157 | 104 | 120 | – | – | inactive
CG7810 | DRSC03072 | 141 | 227 | – | – | inactive
Egfr | DRSC03871 | 89.2 | 6672 | – | – | inactive
Egfr | DRSC04613 | 174 | 83.1 | – | – | inactive
CG34348 | DRSC19425 | 106 | 101 | – | – | inactive
CG34348 | DRSC19644 | 112 | 80.3 | – | – | inactive
CG6980 | DRSC16162 | 157 | 206 | – | – | inactive
CG18540 | DRSC06767 | 190 | 165 | – | – | inactive
Hem | DRSC11865 | 133 | 115 | – | – | inactive
veg (retired record) | DRSC07714 | 117 | 98.2 | – | – | inactive
CG1648 | DRSC06610 | 146 | 150 | 87.7 | 98.8 | inactive
CG11089 + CG31381 | DRSC14290 | 294 | 273 | – | – | inactive
sosie | DRSC14636 | 119 | 89.7 | – | – | inactive
sosie | DRSC21382 | 160 | 95.9 | – | – | inactive
